Data published in patent US8771611B2, “System and methods of log-scale concentration gradients” (Auburn University, priority 2011, dated 2014).
At least one structure is not confirmed: it was looked up by name or label, or the drawing left a doubt.

Sequences of proteins named here, by UniProt entry; tags and fusion partners are left off. Residues count along the entry.
UniProt P14780, 94-707: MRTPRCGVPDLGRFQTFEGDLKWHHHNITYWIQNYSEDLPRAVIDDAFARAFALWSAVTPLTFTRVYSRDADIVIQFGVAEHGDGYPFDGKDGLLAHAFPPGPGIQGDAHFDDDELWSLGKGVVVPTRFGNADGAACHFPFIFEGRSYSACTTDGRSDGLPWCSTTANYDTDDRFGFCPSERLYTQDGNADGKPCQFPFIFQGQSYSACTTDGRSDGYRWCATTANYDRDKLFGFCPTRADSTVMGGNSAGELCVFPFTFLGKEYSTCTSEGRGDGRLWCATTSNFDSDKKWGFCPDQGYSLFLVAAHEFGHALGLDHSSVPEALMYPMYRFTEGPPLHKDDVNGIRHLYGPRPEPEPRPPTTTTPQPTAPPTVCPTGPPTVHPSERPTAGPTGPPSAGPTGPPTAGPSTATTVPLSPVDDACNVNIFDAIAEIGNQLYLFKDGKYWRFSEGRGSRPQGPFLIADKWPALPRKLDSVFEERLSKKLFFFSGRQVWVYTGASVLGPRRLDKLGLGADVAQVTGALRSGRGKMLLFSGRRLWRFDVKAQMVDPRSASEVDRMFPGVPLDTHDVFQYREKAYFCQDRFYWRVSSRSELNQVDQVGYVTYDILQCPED

Biological target: matrix metalloproteases-9 (MMP-9) (Homo sapiens, UniProt P14780)
Test: on-chip (microfluidic chip) logistic dose response of MMP-9 inhibitors, fluorogenic MMP substrate III
Type: biochemical
Conditions: comparison on-chip vs off-chip

## CNC(=O)[C@H](Cc1ccccc1)NC(=O)[C@H](CC(C)C)[C@H](CSc1cccs1)C(=O)NO [batimastat]
  deviation in the IC50 values between on-chip and off-chip experiment: 17%
